Data as given in PubChem BioAssay AID743121 (NCATS, 2013).
Here is an unselected part of about 26,000 reagents tested. Over the whole deposit, 167 (0.63%) were called active. 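Calls are per gene from RSA p-values that are not deposited; an individual active-marked siRNA can sensitise only weakly.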 The numbers tell different reagents against one gene apart. Not all columns of the deposit are shown.

Aim: 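Genes whose silencing strengthens cell killing by camptothecin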 (primary screen)
Cell system: MDA-MB-231 cells, a human breast cancer line
Knock-down reagent: single siRNA against human genes, 20 nM siRNA (0.8 pmol per well)
Time to read-out: 120 h (drug added 48 h after transfection, read 72 h later)
Treatment: camptothecin 20 nM (about EC30) for 72 h; vehicle 0.1% DMSO in parallel plates
Measured: 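CellTiter-Glo ATP signal, scaled to control siRNA as percent viability; sensitisation given as log2 of untreated divided by camptothecin-treated viability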
Direction: log2 vehicle/camptothecin viability: higher = stronger sensitisation to camptothecin
Rule for the call: 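Each gene scored by redundant siRNA activity (RSA) over its individual siRNA ratios; a gene is called active at p < 0.001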

target	siRNA no.	log2 vehicle/camptothecin viability	activity call
KDM5C (lysine demethylase 5C)	1	0.175	inactive
KDM5C (lysine demethylase 5C)	2	-0.23	inactive
KDM5C (lysine demethylase 5C)	3	0.249	inactive
KDM5C (lysine demethylase 5C)	4	0.0493	inactive
RAP1B (RAP1B, member of RAS oncogene family)	1	-0.124	inactive
RAP1B (RAP1B, member of RAS oncogene family)	2	0.266	inactive
RAP1B (RAP1B, member of RAS oncogene family)	3	-0.31	inactive
RAP1B (RAP1B, member of RAS oncogene family)	4	0.462	inactive
MPO (myeloperoxidase)	1	-0.00666	inactive
MPO (myeloperoxidase)	2	-0.662	inactive
MPO (myeloperoxidase)	3	0.256	inactive
MPO (myeloperoxidase)	4	-0.0172	inactive
PTPRG (protein tyrosine phosphatase receptor type G)	1	-0.18	inactive
PTPRG (protein tyrosine phosphatase receptor type G)	2	-0.0139	inactive
PTPRG (protein tyrosine phosphatase receptor type G)	3	-0.275	inactive
PTPRG (protein tyrosine phosphatase receptor type G)	4	-0.325	inactive
PLCD4 (phospholipase C delta 4)	1	-0.289	inactive
PLCD4 (phospholipase C delta 4)	2	-0.102	inactive
PLCD4 (phospholipase C delta 4)	3	-0.0149	inactive
PLCD4 (phospholipase C delta 4)	4	-0.572	inactive
STAT5A (signal transducer and activator of transcription 5A)	1	-0.106	inactive
STAT5A (signal transducer and activator of transcription 5A)	2	-0.134	inactive
STAT5A (signal transducer and activator of transcription 5A)	3	0.000933	inactive
STAT5A (signal transducer and activator of transcription 5A)	4	-0.344	inactive
ETS2 (ETS proto-oncogene 2, transcription factor)	1	-0.38	inactive
ETS2 (ETS proto-oncogene 2, transcription factor)	2	-0.559	inactive
ETS2 (ETS proto-oncogene 2, transcription factor)	3	-0.0791	inactive
PRDX5 (peroxiredoxin 5)	1	-0.0278	inactive
PRDX5 (peroxiredoxin 5)	2	-1.51	inactive
PRDX5 (peroxiredoxin 5)	3	0.578	inactive
PRDX5 (peroxiredoxin 5)	4	-0.0609	inactive
